Measurements: patent publication US11801235B2, “Methods and compositions for delivery of biotin to mitochondria” (priority 2020, dated 2023)
Some results were stated once for a whole list of compounds, not compound by compound. Some compounds share one range, which may span the group rather than tell each member. Square brackets hold non-standard residues; d marks the D form. Peptide text beside a SMILES is read from it. * marks the point of attachment. Biotin = O=C1N[C@H]2[C@H](CS[C@H]2CCCCC(=O)*)N1

Tested on: ARPE-19 human retinal pigment epithelial cell monolayers
Assay: Cell proliferation at scratch edge (PCNA staining)
Type: cell-based
Settings: ARPE-19 cells, 10 nM, serum-free, 24 hours after scratch; compared to control
Description: Re-epithelialization of a wound area require proliferation of cells at the wound edge, which can be impaired in most wounds due to lack of blood flow to deliver nutrients and/or growth factor(s) that can be necessary for cell proliferation. Cell proliferation in the wound edge can be monitored by proliferating cell nuclear antigen (PCNA) staining. To mimic the microenvironment of wounds in vitro, serum-free medium was used for the scratch assay in cell cultures.
Proliferating cells were identified by immunostaining with antibody to proliferating cell nuclear antigen (PCNA) according to standard procedures as presented in IHC World. PCNA staining was performed using the same plate of cells after determination of scratch area. […] All cell nuclei stain blue with Hoechst, but nuclei of proliferating cells stain red. The number of proliferating cells per field was quantified by the intensity of red nuclear stain and normalized to intensity of blue nuclear stain (determined by Nikon NIS-Elements Imaging Software).

Row | SMILES | increase of the percent of proliferating cells at the edge of the scratch, FIG. 23
1 | N=C(N)NCCC[C@@H](NC(=O)[C@H](N)Cc1c[nH]c2ccccc12)C(=O)N[C@H](Cc1c[nH]c2ccccc12)C(=O)N[C@H](CCCCNC(=O)CCCC[C@@H]1SC[C@@H]2NC(=O)N[C@@H]21)C(=O)O [SPN09, D-Trp-D-Arg-D-Trp-D-Lys(biotinyl)-OH] (H-[dW][dR][dW][dK](Biotin)-OH; N-terminus assumed) | 35-100%
2 | N=C(N)NCCC[C@H](NC(=O)[C@@H](N)Cc1c[nH]c2ccccc12)C(=O)N[C@@H](Cc1c[nH]c2ccccc12)C(=O)N[C@@H](CCCCNC(=O)CCCC[C@@H]1SC[C@@H]2NC(=O)N[C@@H]21)C(N)=O [SPN11, L-Trp-L-Arg-L-Trp-L-Lys(biotinyl)-NH2] (H-WRWK(Biotin)-NH2; N-terminus assumed) | 35-100%
3 | N=C(N)NCCC[C@H](NC(=O)[C@H](Cc1c[nH]c2ccccc12)NC(=O)CCCC[C@@H]1SC[C@@H]2NC(=O)N[C@@H]21)C(=O)N[C@@H](Cc1c[nH]c2ccccc12)C(=O)N[C@@H](CCCCNC(=O)CCCC[C@@H]1SC[C@@H]2NC(=O)N[C@@H]21)C(N)=O [SPN12, D-Biotin-L-Trp-L-Arg-L-Trp-L-Lys(biotinyl)-NH2] (Biotin-WRWK(Biotin)-NH2) | 35-100%
